No constants are given. Whether binding was seen depends on the method and setting. For some assays here: Binding seen in cells or lysates may run through a third protein. Some entries that bind do so weakly or less than the wild type.
What was measured:
[1] = target: integrin αvβ5 on HAoSMCs (human) (UniProt P06756+P18084); assay: adult HAoSMC line, data not shown
[2] = target: T1, insoluble type I collagen from bovine Achilles tendon (bovine) (UniProt P02453+P02465); assay: pull-down by insoluble fibrils, supernatant measured by MFAP4 ELISA, Ca2+ or EDTA
[3] = target: insoluble elastin from bovine aorta (bovine) (UniProt P04985); assay: as above
[4] = target: T1, insoluble type I collagen from bovine Achilles tendon (bovine); assay: pull-down by insoluble fibrils, supernatant measured by MFAP4 ELISA (FIG. 2G)
[5] = target: insoluble elastin from bovine aorta (bovine) (UniProt P04985); assay: as above

Sequences of proteins named here, by UniProt entry; tags and fusion partners are left off. A change or cut given only in a name is not applied to a line headed by its entry. Residues count along the entry.
UniProt P06756: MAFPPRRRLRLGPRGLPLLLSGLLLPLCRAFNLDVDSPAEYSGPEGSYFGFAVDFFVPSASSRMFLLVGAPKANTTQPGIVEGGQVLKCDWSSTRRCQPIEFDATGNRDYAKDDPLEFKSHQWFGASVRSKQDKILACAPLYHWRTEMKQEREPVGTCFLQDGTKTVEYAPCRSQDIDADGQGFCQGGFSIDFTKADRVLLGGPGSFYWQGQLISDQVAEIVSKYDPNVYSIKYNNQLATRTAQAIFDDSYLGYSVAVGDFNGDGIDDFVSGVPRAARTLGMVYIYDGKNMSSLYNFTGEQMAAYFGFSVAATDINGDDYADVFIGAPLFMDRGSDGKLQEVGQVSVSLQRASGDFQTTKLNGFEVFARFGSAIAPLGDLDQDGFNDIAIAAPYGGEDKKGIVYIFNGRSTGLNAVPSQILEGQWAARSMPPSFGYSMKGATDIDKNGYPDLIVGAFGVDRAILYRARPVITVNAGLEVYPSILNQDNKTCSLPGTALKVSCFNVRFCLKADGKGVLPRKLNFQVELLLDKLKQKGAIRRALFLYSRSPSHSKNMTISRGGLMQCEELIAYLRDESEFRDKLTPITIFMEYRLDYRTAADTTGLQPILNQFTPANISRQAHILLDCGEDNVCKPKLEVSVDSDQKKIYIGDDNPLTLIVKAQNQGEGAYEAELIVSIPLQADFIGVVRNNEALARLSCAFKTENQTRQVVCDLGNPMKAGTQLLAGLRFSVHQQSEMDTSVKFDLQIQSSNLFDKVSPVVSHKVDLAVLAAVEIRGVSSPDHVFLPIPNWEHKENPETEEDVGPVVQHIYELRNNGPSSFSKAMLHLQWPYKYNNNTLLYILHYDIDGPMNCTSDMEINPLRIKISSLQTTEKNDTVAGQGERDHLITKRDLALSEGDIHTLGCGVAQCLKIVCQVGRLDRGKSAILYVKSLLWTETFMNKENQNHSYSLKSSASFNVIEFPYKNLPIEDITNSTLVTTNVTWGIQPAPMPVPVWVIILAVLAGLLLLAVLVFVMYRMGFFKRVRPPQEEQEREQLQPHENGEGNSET
UniProt P18084: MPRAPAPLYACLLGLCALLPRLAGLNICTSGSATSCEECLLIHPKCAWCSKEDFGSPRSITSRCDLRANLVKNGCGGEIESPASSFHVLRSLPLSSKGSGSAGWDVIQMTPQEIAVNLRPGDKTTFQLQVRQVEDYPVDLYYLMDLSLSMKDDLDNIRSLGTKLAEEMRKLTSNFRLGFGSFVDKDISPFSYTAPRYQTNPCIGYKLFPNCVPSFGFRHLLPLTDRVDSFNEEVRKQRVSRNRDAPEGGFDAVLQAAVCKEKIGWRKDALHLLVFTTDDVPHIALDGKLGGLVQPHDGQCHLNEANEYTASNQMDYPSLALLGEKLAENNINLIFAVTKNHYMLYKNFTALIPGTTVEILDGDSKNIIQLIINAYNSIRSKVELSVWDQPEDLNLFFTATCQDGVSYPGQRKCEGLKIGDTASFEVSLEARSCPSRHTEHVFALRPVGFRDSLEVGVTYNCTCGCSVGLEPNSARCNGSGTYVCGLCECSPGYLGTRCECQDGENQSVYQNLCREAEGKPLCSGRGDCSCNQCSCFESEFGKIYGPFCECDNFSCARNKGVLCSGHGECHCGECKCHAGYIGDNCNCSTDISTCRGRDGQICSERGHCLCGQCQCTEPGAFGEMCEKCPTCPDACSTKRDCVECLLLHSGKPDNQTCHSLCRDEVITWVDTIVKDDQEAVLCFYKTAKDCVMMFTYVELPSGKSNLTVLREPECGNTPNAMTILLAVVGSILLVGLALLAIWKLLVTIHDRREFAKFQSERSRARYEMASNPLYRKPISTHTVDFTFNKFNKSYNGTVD
UniProt P02453: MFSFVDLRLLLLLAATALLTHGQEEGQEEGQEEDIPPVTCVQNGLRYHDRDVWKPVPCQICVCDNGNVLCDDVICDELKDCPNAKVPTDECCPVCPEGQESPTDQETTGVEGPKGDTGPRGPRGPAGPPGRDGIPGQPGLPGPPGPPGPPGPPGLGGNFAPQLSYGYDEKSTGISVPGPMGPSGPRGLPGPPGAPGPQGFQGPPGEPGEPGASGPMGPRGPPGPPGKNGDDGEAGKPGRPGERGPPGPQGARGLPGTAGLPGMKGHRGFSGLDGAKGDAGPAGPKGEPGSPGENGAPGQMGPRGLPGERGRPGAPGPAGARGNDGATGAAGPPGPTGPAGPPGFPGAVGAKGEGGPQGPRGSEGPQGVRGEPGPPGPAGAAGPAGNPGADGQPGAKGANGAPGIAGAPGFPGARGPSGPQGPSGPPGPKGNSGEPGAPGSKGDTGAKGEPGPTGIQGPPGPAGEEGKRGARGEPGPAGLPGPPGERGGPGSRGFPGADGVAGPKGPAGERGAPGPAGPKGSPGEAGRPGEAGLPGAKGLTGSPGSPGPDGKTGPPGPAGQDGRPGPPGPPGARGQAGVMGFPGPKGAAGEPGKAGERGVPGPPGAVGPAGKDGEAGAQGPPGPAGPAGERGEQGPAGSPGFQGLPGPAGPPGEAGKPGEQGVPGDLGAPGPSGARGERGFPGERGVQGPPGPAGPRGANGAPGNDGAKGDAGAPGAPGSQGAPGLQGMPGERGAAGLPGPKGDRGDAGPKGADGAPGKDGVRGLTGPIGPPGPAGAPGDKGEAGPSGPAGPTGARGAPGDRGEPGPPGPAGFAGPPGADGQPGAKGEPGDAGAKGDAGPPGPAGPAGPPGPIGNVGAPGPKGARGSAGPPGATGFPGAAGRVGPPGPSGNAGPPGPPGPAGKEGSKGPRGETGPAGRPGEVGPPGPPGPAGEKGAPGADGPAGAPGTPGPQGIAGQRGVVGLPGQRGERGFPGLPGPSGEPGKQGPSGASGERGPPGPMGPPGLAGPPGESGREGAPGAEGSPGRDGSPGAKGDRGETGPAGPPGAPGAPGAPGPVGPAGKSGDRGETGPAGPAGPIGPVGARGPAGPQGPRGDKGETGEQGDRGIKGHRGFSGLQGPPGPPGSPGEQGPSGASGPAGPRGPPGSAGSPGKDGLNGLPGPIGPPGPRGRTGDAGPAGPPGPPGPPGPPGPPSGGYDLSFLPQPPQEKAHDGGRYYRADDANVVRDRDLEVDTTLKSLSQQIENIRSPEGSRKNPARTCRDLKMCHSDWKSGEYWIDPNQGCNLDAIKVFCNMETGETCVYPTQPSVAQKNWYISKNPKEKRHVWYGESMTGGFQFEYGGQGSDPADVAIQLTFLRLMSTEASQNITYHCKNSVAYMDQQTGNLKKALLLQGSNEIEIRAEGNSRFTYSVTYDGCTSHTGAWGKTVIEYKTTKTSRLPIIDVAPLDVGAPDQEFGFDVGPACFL
UniProt P02465: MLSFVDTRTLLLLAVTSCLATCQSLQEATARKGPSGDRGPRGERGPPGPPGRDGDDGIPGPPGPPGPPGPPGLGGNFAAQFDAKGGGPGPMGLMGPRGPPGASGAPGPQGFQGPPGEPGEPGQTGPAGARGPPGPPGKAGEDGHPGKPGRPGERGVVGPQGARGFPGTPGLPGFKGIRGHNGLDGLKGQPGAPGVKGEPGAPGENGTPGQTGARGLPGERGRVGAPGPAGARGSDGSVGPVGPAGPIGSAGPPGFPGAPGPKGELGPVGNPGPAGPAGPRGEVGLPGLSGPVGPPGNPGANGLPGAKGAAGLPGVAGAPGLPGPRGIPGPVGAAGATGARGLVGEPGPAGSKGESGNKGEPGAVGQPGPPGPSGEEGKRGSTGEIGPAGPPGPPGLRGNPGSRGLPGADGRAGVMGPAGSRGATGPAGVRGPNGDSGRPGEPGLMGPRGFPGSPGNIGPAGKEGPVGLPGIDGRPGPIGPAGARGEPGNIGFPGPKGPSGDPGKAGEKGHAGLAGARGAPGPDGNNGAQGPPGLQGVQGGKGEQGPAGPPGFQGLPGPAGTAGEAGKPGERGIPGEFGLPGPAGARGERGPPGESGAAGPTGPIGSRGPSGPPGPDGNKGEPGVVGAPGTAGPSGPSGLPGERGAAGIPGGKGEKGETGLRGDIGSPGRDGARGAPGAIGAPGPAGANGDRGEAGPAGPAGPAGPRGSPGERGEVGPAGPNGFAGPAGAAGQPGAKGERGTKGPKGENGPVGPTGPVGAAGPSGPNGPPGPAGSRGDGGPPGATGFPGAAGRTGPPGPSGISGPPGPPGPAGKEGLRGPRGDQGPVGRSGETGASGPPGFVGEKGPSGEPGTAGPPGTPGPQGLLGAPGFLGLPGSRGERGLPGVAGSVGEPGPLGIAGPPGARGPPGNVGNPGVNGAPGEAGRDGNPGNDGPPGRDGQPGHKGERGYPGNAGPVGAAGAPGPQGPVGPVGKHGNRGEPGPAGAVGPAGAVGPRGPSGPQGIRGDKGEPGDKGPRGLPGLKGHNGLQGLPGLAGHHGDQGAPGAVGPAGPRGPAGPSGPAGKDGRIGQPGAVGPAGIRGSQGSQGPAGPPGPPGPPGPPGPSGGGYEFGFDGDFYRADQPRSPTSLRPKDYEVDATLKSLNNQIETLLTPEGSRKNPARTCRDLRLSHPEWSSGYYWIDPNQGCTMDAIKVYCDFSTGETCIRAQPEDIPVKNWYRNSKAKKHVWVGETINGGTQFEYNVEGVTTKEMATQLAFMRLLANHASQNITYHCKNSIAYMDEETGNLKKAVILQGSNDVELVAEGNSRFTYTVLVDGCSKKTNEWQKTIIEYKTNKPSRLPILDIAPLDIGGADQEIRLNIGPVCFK
UniProt P04985, residues 27-747: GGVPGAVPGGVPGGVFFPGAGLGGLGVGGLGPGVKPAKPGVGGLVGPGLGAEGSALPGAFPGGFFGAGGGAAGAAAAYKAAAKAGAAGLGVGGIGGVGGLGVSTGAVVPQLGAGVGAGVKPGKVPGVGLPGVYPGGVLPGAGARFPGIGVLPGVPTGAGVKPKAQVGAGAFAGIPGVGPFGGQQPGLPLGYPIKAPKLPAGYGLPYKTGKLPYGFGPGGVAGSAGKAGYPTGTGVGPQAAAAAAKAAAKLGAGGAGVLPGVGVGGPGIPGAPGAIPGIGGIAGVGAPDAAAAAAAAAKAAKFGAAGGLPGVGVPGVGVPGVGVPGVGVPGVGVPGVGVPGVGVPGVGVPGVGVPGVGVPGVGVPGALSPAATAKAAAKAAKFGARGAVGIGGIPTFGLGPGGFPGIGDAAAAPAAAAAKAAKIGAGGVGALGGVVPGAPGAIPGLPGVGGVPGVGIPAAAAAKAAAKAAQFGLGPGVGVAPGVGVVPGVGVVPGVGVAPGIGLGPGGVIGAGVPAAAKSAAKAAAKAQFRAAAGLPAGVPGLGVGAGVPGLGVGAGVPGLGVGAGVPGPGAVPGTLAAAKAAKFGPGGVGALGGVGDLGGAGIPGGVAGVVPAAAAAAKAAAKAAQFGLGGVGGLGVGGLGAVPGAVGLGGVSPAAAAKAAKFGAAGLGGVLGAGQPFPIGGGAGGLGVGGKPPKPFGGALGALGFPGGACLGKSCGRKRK

Measured: binding

B1: recombinant MFAP4 (rMFAP4), wild-type (ligand, human, UniProt P55083 22-255, looked up)
chain: VSGIRGDALERFCLQQPLDCDDIYAQGYQSDGVYLIYPSGPSVPVPVFCDMTTEGGKWTVFQKRFNGSVSFFRGWNDYKLGFGRADGEYWLGLQNMHLLTLKQKYELRVDLEDFENNTAYAKYADFSISPNAVSAEEDGYTLFVAGFEDGGAGDSLSYHSGQKFSTFDRDQDLFVQNCAALSSGAFWFRSCHFANLNGFYLGGSHLSYANGINWAQWKGFYYSLKRTEMKIRRA
binds: all assays above
